Source: publication doi:10.1101/2023.12.07.570679
Results are given in words; binding and its absence hold for the method and conditions named. Binding seen in cells or lysates may run through a third protein. Sequences can lack the tags named with a protein.

Target: T1, AtUVR8 (firefly luciferase fragment fusions AtUVR8-nLUC and cLUC-AtUVR8) (Arabidopsis thaliana), Q9FN03
T1 chain: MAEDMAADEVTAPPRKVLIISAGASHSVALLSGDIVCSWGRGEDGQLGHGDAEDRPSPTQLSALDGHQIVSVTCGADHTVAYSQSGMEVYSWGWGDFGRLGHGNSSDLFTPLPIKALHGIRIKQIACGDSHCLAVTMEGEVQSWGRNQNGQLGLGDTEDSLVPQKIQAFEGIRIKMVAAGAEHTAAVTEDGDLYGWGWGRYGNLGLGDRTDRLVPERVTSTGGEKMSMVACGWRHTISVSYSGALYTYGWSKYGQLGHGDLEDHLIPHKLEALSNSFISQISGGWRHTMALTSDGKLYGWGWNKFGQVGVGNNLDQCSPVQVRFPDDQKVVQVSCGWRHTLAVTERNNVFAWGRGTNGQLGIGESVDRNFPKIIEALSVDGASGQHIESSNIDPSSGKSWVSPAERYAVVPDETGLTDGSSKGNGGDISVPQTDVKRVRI
Assay: split reporter
Conditions: remark: other sources report otherwise

B1: AtUVR8 (firefly luciferase fragment fusions AtUVR8-nLUC and cLUC-AtUVR8), Q9FN03 1-440 (protein)
chain: T1 chain
With B1 the binding was “no binding”.
